Experimental data published in doi:10.1101/2020.08.14.250746.
Results are given in words; binding and its absence hold for the method and conditions named. In cells and extracts the contact can be indirect. Here binding means that the protein was enriched with, or labelled near, the bait; the list need not be complete.

Chains of the proteins cited; added tags and fusions are not shown.
UniProt O88751: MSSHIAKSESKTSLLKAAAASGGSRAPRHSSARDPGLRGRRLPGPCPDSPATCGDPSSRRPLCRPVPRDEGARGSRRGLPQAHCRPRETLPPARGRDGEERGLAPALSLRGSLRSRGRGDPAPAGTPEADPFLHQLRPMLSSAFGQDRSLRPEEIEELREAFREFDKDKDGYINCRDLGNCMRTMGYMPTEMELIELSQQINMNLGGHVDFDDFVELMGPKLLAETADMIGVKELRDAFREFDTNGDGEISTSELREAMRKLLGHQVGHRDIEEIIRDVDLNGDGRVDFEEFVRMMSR
UniProt Q64331: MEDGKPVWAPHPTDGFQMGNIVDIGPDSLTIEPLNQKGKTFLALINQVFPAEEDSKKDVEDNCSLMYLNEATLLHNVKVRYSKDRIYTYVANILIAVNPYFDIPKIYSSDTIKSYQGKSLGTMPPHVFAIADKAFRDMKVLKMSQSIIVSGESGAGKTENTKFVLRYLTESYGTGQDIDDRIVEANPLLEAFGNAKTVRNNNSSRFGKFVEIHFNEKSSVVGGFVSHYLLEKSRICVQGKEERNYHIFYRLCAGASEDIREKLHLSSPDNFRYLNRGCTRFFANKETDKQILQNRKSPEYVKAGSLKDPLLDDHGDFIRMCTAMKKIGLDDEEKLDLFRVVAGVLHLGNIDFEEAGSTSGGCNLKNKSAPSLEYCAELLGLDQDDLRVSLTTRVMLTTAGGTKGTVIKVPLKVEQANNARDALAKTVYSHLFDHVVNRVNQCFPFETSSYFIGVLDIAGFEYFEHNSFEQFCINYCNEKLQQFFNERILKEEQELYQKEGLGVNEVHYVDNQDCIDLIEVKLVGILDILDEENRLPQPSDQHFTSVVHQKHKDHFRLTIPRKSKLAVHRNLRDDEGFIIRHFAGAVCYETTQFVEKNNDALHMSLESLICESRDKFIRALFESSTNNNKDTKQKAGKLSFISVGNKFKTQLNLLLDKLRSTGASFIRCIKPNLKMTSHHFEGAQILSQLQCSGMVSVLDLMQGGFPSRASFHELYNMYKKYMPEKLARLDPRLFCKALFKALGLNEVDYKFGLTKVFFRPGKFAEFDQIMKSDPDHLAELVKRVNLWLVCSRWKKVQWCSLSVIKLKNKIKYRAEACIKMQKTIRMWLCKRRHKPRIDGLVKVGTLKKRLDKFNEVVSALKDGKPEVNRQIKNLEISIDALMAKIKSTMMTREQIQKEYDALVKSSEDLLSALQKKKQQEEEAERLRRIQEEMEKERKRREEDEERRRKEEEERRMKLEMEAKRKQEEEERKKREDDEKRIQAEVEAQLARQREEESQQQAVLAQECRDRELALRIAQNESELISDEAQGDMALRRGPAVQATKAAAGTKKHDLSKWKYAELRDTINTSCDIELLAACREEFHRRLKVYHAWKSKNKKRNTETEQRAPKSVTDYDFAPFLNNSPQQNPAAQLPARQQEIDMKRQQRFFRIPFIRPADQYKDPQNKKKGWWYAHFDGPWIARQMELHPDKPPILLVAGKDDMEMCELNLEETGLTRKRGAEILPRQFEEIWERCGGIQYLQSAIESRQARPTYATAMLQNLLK
UniProt P21271: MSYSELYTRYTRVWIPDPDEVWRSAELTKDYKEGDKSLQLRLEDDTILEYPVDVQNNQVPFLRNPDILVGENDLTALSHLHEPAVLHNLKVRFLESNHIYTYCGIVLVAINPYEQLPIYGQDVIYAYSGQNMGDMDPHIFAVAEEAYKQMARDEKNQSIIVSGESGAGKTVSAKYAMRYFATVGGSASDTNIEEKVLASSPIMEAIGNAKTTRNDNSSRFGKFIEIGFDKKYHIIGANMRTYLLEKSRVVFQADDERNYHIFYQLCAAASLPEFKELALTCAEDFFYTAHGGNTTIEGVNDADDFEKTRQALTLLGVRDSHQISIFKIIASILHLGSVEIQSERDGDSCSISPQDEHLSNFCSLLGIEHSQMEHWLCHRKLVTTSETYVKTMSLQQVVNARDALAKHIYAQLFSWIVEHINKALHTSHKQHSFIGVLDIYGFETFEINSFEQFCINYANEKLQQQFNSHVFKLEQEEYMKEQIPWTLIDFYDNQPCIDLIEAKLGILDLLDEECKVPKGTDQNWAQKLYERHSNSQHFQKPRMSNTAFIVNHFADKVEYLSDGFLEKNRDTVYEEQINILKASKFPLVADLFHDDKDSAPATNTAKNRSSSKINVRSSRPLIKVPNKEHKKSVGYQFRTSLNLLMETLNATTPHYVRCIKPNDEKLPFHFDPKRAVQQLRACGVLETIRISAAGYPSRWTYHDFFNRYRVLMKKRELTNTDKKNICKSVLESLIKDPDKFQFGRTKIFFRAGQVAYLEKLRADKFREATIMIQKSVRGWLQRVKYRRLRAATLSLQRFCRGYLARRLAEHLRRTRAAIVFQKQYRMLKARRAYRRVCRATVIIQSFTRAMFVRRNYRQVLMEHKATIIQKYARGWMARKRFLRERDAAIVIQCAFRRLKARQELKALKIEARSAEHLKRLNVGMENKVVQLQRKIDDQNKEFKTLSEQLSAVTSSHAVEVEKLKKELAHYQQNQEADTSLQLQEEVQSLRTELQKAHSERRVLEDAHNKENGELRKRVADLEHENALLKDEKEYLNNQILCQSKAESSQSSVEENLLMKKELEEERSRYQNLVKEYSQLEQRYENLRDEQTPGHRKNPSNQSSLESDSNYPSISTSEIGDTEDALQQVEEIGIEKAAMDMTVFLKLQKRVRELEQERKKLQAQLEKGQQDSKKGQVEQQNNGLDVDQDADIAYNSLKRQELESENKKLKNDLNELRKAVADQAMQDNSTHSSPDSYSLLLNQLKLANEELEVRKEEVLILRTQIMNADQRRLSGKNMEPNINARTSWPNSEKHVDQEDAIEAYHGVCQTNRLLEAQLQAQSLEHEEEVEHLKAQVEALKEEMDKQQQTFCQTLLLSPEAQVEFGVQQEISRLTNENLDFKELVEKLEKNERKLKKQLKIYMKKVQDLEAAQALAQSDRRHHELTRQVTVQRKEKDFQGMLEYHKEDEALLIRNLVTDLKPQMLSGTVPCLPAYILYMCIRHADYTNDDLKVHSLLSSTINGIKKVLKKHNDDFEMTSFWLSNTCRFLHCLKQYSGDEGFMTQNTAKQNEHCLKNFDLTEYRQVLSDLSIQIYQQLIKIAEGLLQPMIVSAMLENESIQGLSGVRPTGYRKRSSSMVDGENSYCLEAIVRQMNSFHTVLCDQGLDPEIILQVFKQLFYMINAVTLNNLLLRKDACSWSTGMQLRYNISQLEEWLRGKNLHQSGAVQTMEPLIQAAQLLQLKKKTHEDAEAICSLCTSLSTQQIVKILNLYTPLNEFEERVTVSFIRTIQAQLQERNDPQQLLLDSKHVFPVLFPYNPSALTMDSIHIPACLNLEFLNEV

Target: biotinylated GFP-caldendrin (UniProt O88751)
Assay: affinity purification with mass spectrometry

Substance: myosin VI (endogenous, mouse brain) (from UniProt Q64331 1-1262)
- binding: binds

Substance: myosin Vb (endogenous, mouse brain) (from UniProt P21271 1-1818)
- binding: binds
